This note sets out measurements from patent US8409580B2 (AC Immune SA, priority 2003, dated 2013).

This data set can be described thus: general procedure: Boc solid-phase peptide synthesis; N-[(1H-benzotriazol-1-yl)(dimethylamino)methylene]-N-methylmethanaminium hexaflu. To be noted: whole synthesis.

For “K-G-GNMTDSFTKAEASILPSITNQSGPNSTLIISNSSLEEE-G-K-K-NH2 (KGGNMTDSFTKAEASILPSITNQSGPNSTLIISNSSLEEEGKK; four palmitic acids; C-terminal amide; listed as Mus musculus)”, the “purity (crude or final not stated)” value was 91.6%.
